From patent US20160257968A1
No constants are given. Whether binding was seen depends on the method and setting. In cells and extracts the contact can be indirect. Some results given as binding are weak or reduced against the parent protein; the word gives no strength. Tags and fused reporters may be left off the sequences shown.

Tests used:
Assay in all cases: bead-based (Luminex) co-immunoprecipitation from lysate of co-transformed corn leaf protoplasts, complex detected with biotinylated anti-CFP antibody
Zmhdz29 = biological target: T1, Zmhdz29
T1 sequence (chain, by the resolver, C-terminal CFP fusion, not carried in the letters): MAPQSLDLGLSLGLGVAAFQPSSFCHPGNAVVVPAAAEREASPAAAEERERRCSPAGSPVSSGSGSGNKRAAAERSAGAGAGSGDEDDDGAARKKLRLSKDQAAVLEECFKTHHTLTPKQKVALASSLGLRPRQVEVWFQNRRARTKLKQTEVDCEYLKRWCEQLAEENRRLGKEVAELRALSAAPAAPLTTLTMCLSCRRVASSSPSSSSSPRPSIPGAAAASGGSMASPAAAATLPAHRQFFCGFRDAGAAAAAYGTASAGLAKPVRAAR

Zmhdz21 = biological target: T2, Zmhdz21
T2 sequence (chain, by the resolver, C-terminal CFP fusion, not in the letters): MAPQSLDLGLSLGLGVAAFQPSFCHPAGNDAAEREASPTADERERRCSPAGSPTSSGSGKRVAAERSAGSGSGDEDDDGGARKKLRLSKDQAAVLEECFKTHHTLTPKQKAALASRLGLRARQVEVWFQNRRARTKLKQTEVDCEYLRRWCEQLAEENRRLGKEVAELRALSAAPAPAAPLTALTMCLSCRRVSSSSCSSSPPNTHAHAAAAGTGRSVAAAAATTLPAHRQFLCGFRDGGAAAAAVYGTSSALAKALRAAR

Zmhdz35 = biological target: T3, Zmhdz35
T3 sequence (chain, by the resolver, C-terminal CFP fusion, not in the letters): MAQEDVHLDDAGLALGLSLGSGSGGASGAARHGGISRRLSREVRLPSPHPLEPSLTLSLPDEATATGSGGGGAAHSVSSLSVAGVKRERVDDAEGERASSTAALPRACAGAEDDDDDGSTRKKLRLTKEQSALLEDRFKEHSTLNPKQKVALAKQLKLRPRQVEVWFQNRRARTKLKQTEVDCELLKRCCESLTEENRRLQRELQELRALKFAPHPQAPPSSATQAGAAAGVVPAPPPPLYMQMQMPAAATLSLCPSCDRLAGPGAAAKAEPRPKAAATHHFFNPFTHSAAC

Zmhdz31 = biological target: T4, Zmhdz31
T4 sequence (chain, by the resolver, C-terminal CFP fusion, not carried in the letters): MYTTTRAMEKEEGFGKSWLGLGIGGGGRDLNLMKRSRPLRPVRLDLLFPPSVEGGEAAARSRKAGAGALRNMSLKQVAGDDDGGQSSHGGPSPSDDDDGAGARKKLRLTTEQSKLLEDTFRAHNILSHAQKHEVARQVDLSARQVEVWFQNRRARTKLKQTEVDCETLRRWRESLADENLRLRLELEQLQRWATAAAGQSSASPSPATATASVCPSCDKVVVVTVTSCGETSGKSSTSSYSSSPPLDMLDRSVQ

Zmhdz34 = biological target: T5, Zmhdz34
T5 sequence (chain, by the resolver, C-terminal CFP fusion, not in the letters): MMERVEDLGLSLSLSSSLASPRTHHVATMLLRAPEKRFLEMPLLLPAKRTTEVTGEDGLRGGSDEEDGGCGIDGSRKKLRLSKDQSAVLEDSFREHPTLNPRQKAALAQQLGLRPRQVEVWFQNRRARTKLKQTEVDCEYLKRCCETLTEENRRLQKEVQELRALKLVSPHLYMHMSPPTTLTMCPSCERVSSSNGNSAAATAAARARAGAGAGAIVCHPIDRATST

Zmhdz24 = biological target: T6, Zmhdz24
T6 sequence (chain, by the resolver, C-terminal CFP fusion, not in the letters): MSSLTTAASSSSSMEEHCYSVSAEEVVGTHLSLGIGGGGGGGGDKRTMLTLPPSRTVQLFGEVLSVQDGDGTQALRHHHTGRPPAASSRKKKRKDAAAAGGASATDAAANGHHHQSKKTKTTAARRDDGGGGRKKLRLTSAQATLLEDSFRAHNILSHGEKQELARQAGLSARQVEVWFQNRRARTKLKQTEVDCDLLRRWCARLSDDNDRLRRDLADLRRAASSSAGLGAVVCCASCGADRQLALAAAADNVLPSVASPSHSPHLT

Zmhdz26 = biological target: T7, Zmhdz26
T7 sequence (chain, by the resolver, C-terminal CFP fusion, not carried in the letters): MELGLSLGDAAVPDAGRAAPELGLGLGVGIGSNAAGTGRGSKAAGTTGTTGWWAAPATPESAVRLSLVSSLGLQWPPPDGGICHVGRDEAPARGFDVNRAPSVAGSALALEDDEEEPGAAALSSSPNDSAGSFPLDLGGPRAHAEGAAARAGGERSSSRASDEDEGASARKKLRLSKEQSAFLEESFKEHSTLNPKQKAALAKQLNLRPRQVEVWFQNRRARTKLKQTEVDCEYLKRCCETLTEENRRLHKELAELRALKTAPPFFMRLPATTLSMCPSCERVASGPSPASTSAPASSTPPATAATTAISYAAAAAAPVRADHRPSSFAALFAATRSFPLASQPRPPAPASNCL

Zmhdz25 = biological target: T8, Zmhdz25
T8 sequence (chain, by the resolver, C-terminal CFP fusion, not carried in the letters): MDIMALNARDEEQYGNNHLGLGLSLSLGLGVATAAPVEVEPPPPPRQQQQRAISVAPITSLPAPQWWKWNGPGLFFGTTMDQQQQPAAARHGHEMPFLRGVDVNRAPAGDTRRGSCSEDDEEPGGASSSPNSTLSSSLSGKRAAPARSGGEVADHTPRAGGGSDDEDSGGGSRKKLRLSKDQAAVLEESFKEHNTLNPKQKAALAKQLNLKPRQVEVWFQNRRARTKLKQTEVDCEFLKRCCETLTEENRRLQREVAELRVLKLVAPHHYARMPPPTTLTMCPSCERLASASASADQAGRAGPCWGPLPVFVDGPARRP

Zmhdz33 = biological target: T9, Zmhdz33
T9 sequence (chain, by the resolver, C-terminal CFP fusion, not in the letters): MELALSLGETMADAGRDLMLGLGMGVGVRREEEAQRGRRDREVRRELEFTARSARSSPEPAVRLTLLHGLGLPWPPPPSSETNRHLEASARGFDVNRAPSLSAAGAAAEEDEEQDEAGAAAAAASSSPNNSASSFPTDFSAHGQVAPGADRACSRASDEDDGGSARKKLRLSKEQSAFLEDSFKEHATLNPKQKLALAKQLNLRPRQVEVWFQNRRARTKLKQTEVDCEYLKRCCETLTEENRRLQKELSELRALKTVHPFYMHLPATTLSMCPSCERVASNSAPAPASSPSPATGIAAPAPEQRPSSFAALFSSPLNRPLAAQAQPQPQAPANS

Zmhdz30 = biological target: T10, Zmhdz30
T10 sequence (chain, by the resolver, C-terminal CFP fusion, not carried in the letters): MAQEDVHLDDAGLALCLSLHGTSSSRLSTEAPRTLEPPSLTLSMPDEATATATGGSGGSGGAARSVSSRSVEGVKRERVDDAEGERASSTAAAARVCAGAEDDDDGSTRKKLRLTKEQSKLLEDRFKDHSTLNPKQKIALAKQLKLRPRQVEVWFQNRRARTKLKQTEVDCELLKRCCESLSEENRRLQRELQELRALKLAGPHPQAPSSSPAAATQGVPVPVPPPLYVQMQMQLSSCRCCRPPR

Measured: binding

B1: ATHB17Δ113::MYC-HA (C-terminal MYC-HA fusion of ATHB17Δ113) (protein, not shown: small tags and cut ends)
chain: MNRLPSSEDGDDEEFSHDDGSAPPRKKLRLTREQSRLLEDSFRQNHTLNPKQKEVLAKHLMLRPRQIEVWFQNRRARSKLKQTEMECEYLKRWFGSLTEENHRLHREVEELRAIKVGPTTVNSASSLTMCPRCERVTPAASPSRAVVPVPAKKTFPPQERDR
binds: all assays above
